Results are given in words; binding and its absence hold for the method and conditions named. A result given as binding can be weak or reduced; the word gives no strength.

Chains of the proteins cited; added tags and fusions are not shown. Lines headed by an entry give the natural chain unless they say otherwise; changes in a name come on top.
UniProt Q17604: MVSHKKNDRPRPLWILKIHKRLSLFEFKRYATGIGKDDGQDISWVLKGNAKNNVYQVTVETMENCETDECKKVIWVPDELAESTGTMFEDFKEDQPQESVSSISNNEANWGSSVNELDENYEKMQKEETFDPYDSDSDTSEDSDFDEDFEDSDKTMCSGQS
UniProt P48727: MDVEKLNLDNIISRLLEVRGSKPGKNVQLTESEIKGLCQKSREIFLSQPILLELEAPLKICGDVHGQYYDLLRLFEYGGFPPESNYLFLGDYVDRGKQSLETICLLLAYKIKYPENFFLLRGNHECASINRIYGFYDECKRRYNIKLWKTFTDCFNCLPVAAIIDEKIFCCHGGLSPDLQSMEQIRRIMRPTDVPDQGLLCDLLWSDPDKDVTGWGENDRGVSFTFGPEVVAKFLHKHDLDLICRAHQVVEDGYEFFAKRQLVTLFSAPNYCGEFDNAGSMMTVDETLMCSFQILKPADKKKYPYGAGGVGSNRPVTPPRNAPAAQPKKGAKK
UniProt Q27497: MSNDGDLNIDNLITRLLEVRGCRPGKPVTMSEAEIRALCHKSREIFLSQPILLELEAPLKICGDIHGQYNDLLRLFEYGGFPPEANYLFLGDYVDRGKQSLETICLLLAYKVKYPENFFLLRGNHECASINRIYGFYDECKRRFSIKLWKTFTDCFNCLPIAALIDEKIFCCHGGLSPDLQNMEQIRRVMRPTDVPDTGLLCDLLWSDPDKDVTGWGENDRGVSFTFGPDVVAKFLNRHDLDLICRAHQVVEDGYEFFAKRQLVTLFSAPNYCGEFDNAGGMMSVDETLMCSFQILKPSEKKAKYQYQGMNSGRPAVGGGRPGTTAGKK

What all share (assay): far-Western, overlay or dot blot; 0.8 µg of each protein resolved on 12.5% SDS-PAGE and transferred to nitrocellulose; blocked in PBSTBM (PBS, 1% Tween 20, 5% dry milk, 1% BSA); incubated overnight at 4°C with 2 µg/ml of the binding protein in PBSTBM; probed with antibodies; both orientations used; both purified
The target in experiment [1] is LAB-1 lacking the putative PP1 binding motif (ΔPP1), purified recombinant (C. elegans) (UniProt Q17604).
Experiment [2] addresses GSP-2 (PP1 homolog), purified recombinant (C. elegans) (UniProt P48727).
The target of experiment [3] is GSP-1 (PP1 homolog), purified recombinant (C. elegans) (UniProt Q27497).

Regarding “GSP-1 (PP1 homolog), purified recombinant (from UniProt Q27497 1-329) (enzyme)”, the binding result in experiment [1] is on record as “binds”. Regarding “LAB-1 lacking the putative PP1 binding motif (ΔPP1), purified recombinant (from UniProt Q17604)”, the binding result in experiment [2] and in experiment [3] was “binds” in each case.

These data come from publication PMC3424243.
